Source: PubChem BioAssay AID220 (DTP/NCI, 2004)
The list shows only some results of the screen, not a fair sample: its compounds were picked by chemical class. Not every dose and run of a compound is shown. T/C gives the treated animals as a percentage of the vehicle group. Schedules are NCI's codes, taken here to give the interval after Q, in days (D) or hours (H), and the number of doses after X. Some T/C values are followed by the survivors on the day toxicity was checked; where neither a count nor a note follows, no animal had died by that day. Some entries hold several experiments; their values stand side by side, smallest first. Some entries give survivors of the animals treated and no T/C: the source files T/C as zero there, which appears to mark a toxic dose or a test without result, not a measured value. Counts of survivors are from the toxicity check, whose day is not always given; animals may have died later.

Test system: CD8F1 mice, subcutaneous mammary adenocarcinoma, T/C%
Test: NCI In Vivo Anticancer Drug Screen. Data for tumor model Mammary Adenocarcinoma CD8F1 (subcutaneous) in CD8F1
Settings: higher T/C = larger tumour
Description: The antitumor activity of compounds was measured in mice bearing transplantable tumors. Survival or tumor size were measured and the results are expressed as the measurement made in the treated group (T) divided by the measurement made in the vehicle treated control group (C). The tumor model used in this assay is Mammary Adenocarcinoma CD8F1 (subcutaneous) in CD8F1

ICCN(CCI)c1cccc2ccccc12
T/C (T/C endpoint: median tumor weight (est.), dose: 0.37 mg/kg/injection, schedule: Q07DX005 (ip), vehicle: Klucel (hydroxypropylcellulose) (HPC), evaluated on day 30): 127 % of control
T/C (T/C endpoint: median tumor weight (est.), dose: 0.75 mg/kg/injection, schedule: Q07DX005 (ip), vehicle: Klucel (hydroxypropylcellulose) (HPC), evaluated on day 30): 85 % of control
T/C (T/C endpoint: median tumor weight (est.), dose: 0.78 mg/kg/injection, schedule: Q07DX005 (ip), vehicle: Klucel (hydroxypropylcellulose) (HPC), evaluated on day 30): 160 % of control
T/C (T/C endpoint: median tumor weight (est.), dose: 1.5 mg/kg/injection, schedule: Q07DX005 (ip), vehicle: Klucel (hydroxypropylcellulose) (HPC), evaluated on day 30): 51 % of control
T/C (T/C endpoint: median tumor weight (est.), dose: 1.56 mg/kg/injection, schedule: Q07DX005 (ip), vehicle: Klucel (hydroxypropylcellulose) (HPC), evaluated on day 30): 122 % of control
T/C (T/C endpoint: median tumor weight (est.), dose: 3.0 mg/kg/injection, schedule: Q07DX005 (ip), vehicle: Klucel (hydroxypropylcellulose) (HPC), evaluated on day 30): 66 % of control [9 of 10 alive on day 30]
T/C (T/C endpoint: median tumor weight (est.), dose: 3.12 mg/kg/injection, schedule: Q07DX005 (ip), vehicle: Klucel (hydroxypropylcellulose) (HPC), evaluated on day 30): 136 % of control
survivor count (T/C endpoint: median tumor weight (est.), dose: 6.0 mg/kg/injection, schedule: Q07DX005 (ip), vehicle: Klucel (hydroxypropylcellulose) (HPC)): 3 of 10 on day 30
T/C (T/C endpoint: median tumor weight (est.), dose: 6.25 mg/kg/injection, schedule: Q07DX005 (ip), vehicle: Klucel (hydroxypropylcellulose) (HPC), evaluated on day 30): 106 [9 of 10 alive on day 30] and 154 % of control
survivor count (T/C endpoint: median tumor weight (est.), dose: 6.25 mg/kg/injection, schedule: Q07DX005 (ip), vehicle: Klucel (hydroxypropylcellulose) (HPC)): 6 of 10 on day 30
T/C (T/C endpoint: median tumor weight (est.), dose: 12.5 mg/kg/injection, schedule: Q01DX005 (ip), vehicle: Klucel (hydroxypropylcellulose) (HPC), evaluated on day 34): 66 % of control
T/C (T/C endpoint: median tumor weight (est.), dose: 12.5 mg/kg/injection, schedule: Q07DX005 (ip), vehicle: Klucel (hydroxypropylcellulose) (HPC), evaluated on day 30): 128 % of control
survivor count (T/C endpoint: median tumor weight (est.), dose: 12.5 mg/kg/injection, schedule: Q07DX005 (ip), vehicle: Klucel (hydroxypropylcellulose) (HPC)): 0 of 10 on day 30 and 5 of 10 on day 30
survivor count (T/C endpoint: median tumor weight (est.), dose: 15.0 mg/kg/injection, schedule: Q07DX005 (ip), vehicle: Klucel (hydroxypropylcellulose) (HPC)): 0 of 10 on day 30 and 2 of 10 on day 30
T/C (T/C endpoint: median tumor weight (est.), dose: 25.0 mg/kg/injection, schedule: Q01DX005 (ip), vehicle: Klucel (hydroxypropylcellulose) (HPC), evaluated on day 34): 27 % of control
T/C (T/C endpoint: median tumor weight (est.), dose: 25.0 mg/kg/injection, schedule: Q07DX005 (ip), vehicle: Klucel (hydroxypropylcellulose) (HPC), evaluated on day 30): 105 % of control
survivor count (T/C endpoint: median tumor weight (est.), dose: 25.0 mg/kg/injection, schedule: Q07DX005 (ip), vehicle: Klucel (hydroxypropylcellulose) (HPC)): 0 of 10 on day 30
survivor count (T/C endpoint: median tumor weight (est.), dose: 30.0 mg/kg/injection, schedule: Q07DX005 (ip), vehicle: Klucel (hydroxypropylcellulose) (HPC)): 0 of 10 on day 30
survivor count (T/C endpoint: median tumor weight (est.), dose: 50.0 mg/kg/injection, schedule: Q07DX005 (ip), vehicle: Klucel (hydroxypropylcellulose) (HPC)): 0 of 10 on day 30 and 6 of 10
survivor count (T/C endpoint: median tumor weight (est.), dose: 60.0 mg/kg/injection, schedule: Q07DX005 (ip), vehicle: Klucel (hydroxypropylcellulose) (HPC)): 0 of 10 on day 30
survivor count (T/C endpoint: median tumor weight (est.), dose: 100.0 mg/kg/injection, schedule: Q07DX005 (ip), vehicle: Klucel (hydroxypropylcellulose) (HPC)): 0 of 10 on day 30
survivor count (T/C endpoint: median tumor weight (est.), dose: 120.0 mg/kg/injection, schedule: Q07DX005 (ip), vehicle: Klucel (hydroxypropylcellulose) (HPC)): 0 of 10 on day 30
survivor count (T/C endpoint: median tumor weight change, dose: 15.62 mg/kg/injection, schedule: Q01DX001 (ip), vehicle: Klucel (hydroxypropylcellulose) (HPC)): 3 of 10 on day 30
survivor count (T/C endpoint: median tumor weight change, dose: 31.0 mg/kg/injection, schedule: Q01DX001 (ip), vehicle: Klucel (hydroxypropylcellulose) (HPC)): 4 of 9 on day 28
survivor count (T/C endpoint: median tumor weight change, dose: 31.25 mg/kg/injection, schedule: Q01DX001 (ip), vehicle: Klucel (hydroxypropylcellulose) (HPC)): 5 of 10 on day 30
survivor count (T/C endpoint: median tumor weight change, dose: 62.0 mg/kg/injection, schedule: Q01DX001 (ip), vehicle: Klucel (hydroxypropylcellulose) (HPC)): 3 of 9 on day 28
survivor count (T/C endpoint: median tumor weight change, dose: 62.5 mg/kg/injection, schedule: Q01DX001 (ip), vehicle: Klucel (hydroxypropylcellulose) (HPC)): 1 of 10 on day 30
survivor count (T/C endpoint: median tumor weight change, dose: 125.0 mg/kg/injection, schedule: Q01DX001 (ip), vehicle: Klucel (hydroxypropylcellulose) (HPC)): 0 of 10 on day 30 and 2 of 9 on day 28
survivor count (T/C endpoint: median tumor weight change, dose: 250.0 mg/kg/injection, schedule: Q01DX001 (ip), vehicle: Klucel (hydroxypropylcellulose) (HPC)): 0 of 9 on day 28 and 2 of 10 on day 30
survivor count (T/C endpoint: median tumor weight change, dose: 500.0 mg/kg/injection, schedule: Q01DX001 (ip), vehicle: Klucel (hydroxypropylcellulose) (HPC)): 0 of 10 on day 30 and 0 of 9 on day 28

NC(=O)c1[nH]cnc1/N=N\N(CCCl)CCCl
T/C (T/C endpoint: mean tumor weight (est.), dose: 100.0 mg/kg/injection, schedule: Q07DX005 (ip), vehicle: saline, evaluated on day 63): 72 % of control
T/C (T/C endpoint: mean tumor weight (est.), dose: 200.0 mg/kg/injection, schedule: Q07DX005 (ip), vehicle: saline, evaluated on day 63): 36 % of control [8 of 10 alive]
T/C (T/C endpoint: mean tumor weight, dose: 12.5 mg/kg/injection, schedule: Q01DX009 (ip), vehicle: saline, evaluated on day 31): 99 % of control
T/C (T/C endpoint: mean tumor weight, dose: 25.0 mg/kg/injection, schedule: Q01DX009 (ip), vehicle: saline, evaluated on day 31): 56 % of control
T/C (T/C endpoint: mean tumor weight, dose: 50.0 mg/kg/injection, schedule: Q01DX009 (ip), vehicle: saline, evaluated on day 31): 44 % of control
T/C (T/C endpoint: mean tumor weight, dose: 100.0 mg/kg/injection, schedule: Q07DX005 (ip), vehicle: saline, evaluated on day 34): 185 % of control
T/C (T/C endpoint: mean tumor weight, dose: 100.0 mg/kg/injection, schedule: Q07DX005 (ip), vehicle: saline, evaluated on day 36): 638 % of control
T/C (T/C endpoint: mean tumor weight, dose: 200.0 mg/kg/injection, schedule: Q07DX005 (ip), vehicle: saline, evaluated on day 34): 387 % of control
T/C (T/C endpoint: mean tumor weight, dose: 200.0 mg/kg/injection, schedule: Q07DX005 (ip), vehicle: saline, evaluated on day 36): 105 % of control [9 of 10 alive]
T/C (T/C endpoint: mean tumor weight, dose: 400.0 mg/kg/injection, schedule: Q07DX005 (ip), vehicle: saline, evaluated on day 34): 204 % of control
T/C (T/C endpoint: mean tumor weight, dose: 400.0 mg/kg/injection, schedule: Q07DX005 (ip), vehicle: saline, evaluated on day 36): 62 % of control [9 of 10 alive]
T/C (T/C endpoint: median tumor weight (est.), dose: 12.5 mg/kg/injection, schedule: Q07DX005 (ip), vehicle: saline with Tween-80, evaluated on day 30): 152 % of control
T/C (T/C endpoint: median tumor weight (est.), dose: 25.0 mg/kg/injection, schedule: Q07DX005 (ip), vehicle: saline with Tween-80, evaluated on day 30): 114 % of control
T/C (T/C endpoint: median tumor weight (est.), dose: 50.0 mg/kg/injection, schedule: Q07DX005 (ip), vehicle: saline with Tween-80, evaluated on day 30): 6 % of control
T/C (T/C endpoint: median tumor weight (est.), dose: 100.0 mg/kg/injection, schedule: Q07DX005 (ip), vehicle: saline with Tween-80, evaluated on day 30): 12 % of control
survivor count (T/C endpoint: median tumor weight (est.), dose: 200.0 mg/kg/injection, schedule: Q07DX005 (ip), vehicle: saline with Tween-80): 4 of 10 on day 30
survivor count (T/C endpoint: median tumor weight (est.), dose: 400.0 mg/kg/injection, schedule: Q07DX005 (ip), vehicle: saline with Tween-80): 0 of 10 on day 30
